Results from PubChem BioAssay AID493014 (National Center for Advancing Translational Sciences (NCATS), 2011).
“And” between values parts separate entries of the source, which are not always exact repeats. Equal values may be shown once. Some of the results follow. These are further read-outs of the screen, such as a control signal, another cell line or another target. No call is given for them. Compounds called inactive in the main read-out are mostly missing here. The note in brackets gives the kind of curve behind each potency; many fits are weak.

Assay: qHTS Assay to Find Inhibitors of Chronic Active B-Cell Receptor Signaling
Details: ABC-DLBCL IkBa-CBG/CBR reporter, luminescence ratio (green luciferase fused to IkBa over red control in TMD8 lymphoma cells), 4 h
Procedure, shortened: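 TMD8 human ABC-DLBCL cells with doxycycline-inducible IκBα–green luciferase fusion and unfused red luciferase, in 0.5% FBS medium; compounds up to 46 uM, 4 h at 37C. Green/red luminescence ratio, filter-overlap corrected, fitted to concentration-response curves.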

[1] = measured here: CBR red luminescence, cell number
[2] = measured here: IkBa-CBG green luminescence

| SMILES | AC50 [1] | AC50 [2] |
| --- | --- | --- |
| CC(C)(C)C(=O)NNC(=O)c1cc2sccc2s1 | 3.16 µM [rising, single point] |  |
| CCOC(=O)C1CCN(C(=O)c2cc(C(C)(C)C)nn2Cc2ccccc2)CC1 | 3.16 µM [rising, full curve, poor fit] |  |
| COc1ccc(NC(=O)C2CCCN(S(=O)(=O)c3cccs3)C2)cc1OC (stereo unspecified) | 2.59 µM [rising, partial curve, poor fit] |  |
| C=CC[C@H](CC(=O)NCCO)C(=O)N[C@@H](C)COC(=O)[C@@H](CC=C)CC(=O)OC(C)(C)C | 0.259 µM [rising, full curve, poor fit] |  |
| O=C(COc1ccc(Cl)cc1)Nc1ccccc1CO | 7.94 µM [falling, partial curve] |  |
| Cc1cc(=O)oc2c(C)c(OCC(=O)N3CCC(C(=O)O)CC3)ccc12 | 15.8 µM [falling, single point] |  |
| O=C(Nc1cccc2ccccc12)N1CCN(Cc2ccc3c(c2)OCO3)CC1 | 0.731 µM [falling, full curve, poor fit] |  |
| O=[N+]([O-])c1cccc(/C=N/Nc2nccnc2Cl)c1 | 12.6 µM [rising, partial curve, poor fit] |  |
| CNc1nnc(-c2ccco2)s1 | 0.0891 µM [rising, full curve, poor fit] |  |
| O=C(NCC1CCCO1)C1CC(c2ccccc2Cl)=NO1 (stereo unspecified) | 13 µM [rising, partial curve, poor fit] |  |
| O=C(NCC(c1cccnc1)N1CCN(c2ccccc2F)CC1)OCc1ccccc1 (stereo unspecified) | 2.06 µM [rising, partial curve, poor fit] |  |
| CCc1nc(SCC(=O)N2CCCc3ccccc32)c2oc3ccccc3c2n1 | 2.82 µM [falling, partial curve, poor fit] |  |
| CCCCc1cc(O)c(CCCC)c(O)c1 |  | 11.2 µM [falling, partial curve] |
| O=C(Nc1ccccc1F)Nc1ccccc1F | 10 µM [falling, partial curve, poor fit] |  |
| CCOC(=O)C1=C(COC(=O)c2cc(S(=O)(=O)N(C)C)ccc2C)NC(=O)NC1C (stereo unspecified) | 7.31 µM [falling, partial curve, poor fit] |  |
| Cc1ccc(C(=O)c2nc3c(n2O)CCCC3)cc1 | 9.2 µM [falling, partial curve, poor fit] |  |
| O=c1cc(N2CCc3ccccc32)[nH]c(=O)n1-c1ccc(Cl)cc1 | 11.2 µM [falling, partial curve, poor fit] |  |
| COc1ccc2sc(NC(C)=O)nc2c1 | 6.51 µM [rising, single point] |  |
| CC(C)(C)NS(=O)(=O)c1ccc(NS(C)(=O)=O)cc1 | 0.103 µM [rising, full curve, poor fit] |  |
| O=C(COc1ccc(Cl)cc1)Nc1ccc(C(=O)O)cc1NC(=O)COc1ccc(Cl)cc1 | 10 µM [falling, partial curve] |  |
| COc1ccccc1-c1ccc(Nc2cccc(C(C)=O)c2)nn1 | 0.461 µM [falling, partial curve, poor fit] |  |

Fetched one by one from the entries so far, 2 records:

| SMILES | AC50 [1] | AC50 [2] |
| --- | --- | --- |
| CCCCc1cc(O)c(CCCC)c(O)c1 |  | 11.2 µM [falling, partial curve] |
| Cc1cc(=O)oc2c(C)c(OCC(=O)N3CCC(C(=O)O)CC3)ccc12 | 15.8 µM [falling, single point] |  |

The listing continues.

| SMILES | AC50 [1] | AC50 [2] |
| --- | --- | --- |
| COc1ccc(N2C(=O)CSC23CCCCC3)cc1 | 29.1 µM [falling, single point] |  |
| CCOC(=O)c1c(C2CC2)csc1NC(=O)CSCc1c(C)noc1C | 7.94 µM [rising, partial curve, poor fit] |  |
| COc1ccc(OC)c(NC(=O)c2nc(S(=O)(=O)Cc3ccccc3)ncc2Cl)c1 | 2.82 µM [falling, full curve] | 3.98 µM [rising, full curve] |
| COc1ccc(OC)c(NC(=O)CSc2nc3ccccc3c(=O)n2CCNC(C)=O)c1 | 3.26 µM [rising, full curve, poor fit] |  |
| CN(CC(=O)Nc1ccccc1C(F)(F)F)C(=O)c1cccc(-n2cccc2)c1 | 6.51 µM [rising, full curve, poor fit] |  |
| CCc1ccc(/C=C/c2c([N+](=O)[O-])c(=O)n(C)c(=O)n2C)cc1 | 10 µM [falling, partial curve, poor fit] |  |
| CC(=O)Nc1ccc(NC(=O)CSc2nnc(-c3cc(C)[nH]n3)n2N)cc1 | 35.5 µM [rising, single point] |  |
| CCOc1ccc(C)cc1S(=O)(=O)n1cnc2ccccc21 | 1.26 µM [rising, full curve, poor fit] |  |
| CN1C(=O)C(O)(CC(=O)c2ccccc2O)c2cc(Br)ccc21 (stereo unspecified) | 22.4 µM [rising, single point] and 6.51 µM [falling, partial curve, poor fit] | 17.8 µM [falling, single point] and 23.1 µM [falling, single point] |
| CN(C)c1nc(NCc2ccccc2)nc(N/N=C/c2ccccc2F)n1 | 2.51 µM [rising, single point] |  |
| CCOCCCNC1=C(Cl)C(=O)c2ccccc2C1=O |  | 14.1 µM [rising, partial curve, poor fit] |
| Cc1cccnc1NC(=O)c1ccc2nc(N)sc2c1 | 0.116 µM [falling, full curve, poor fit] |  |
| CC(=O)NC(CC(=O)Nc1nc(C)cs1)c1ccccc1 (stereo unspecified) | 10 µM [rising, partial curve, poor fit] |  |
| CCOc1ccc(Br)cc1C1=CC(=O)C[C@H](c2ccc(OC)cc2)C1 | 3.66 µM [rising, full curve] | 20.6 µM [falling, single point] |
| CC1(C)CC(=O)C2=C(C1)O[C@@]1(CCCCN3C(=O)c4ccccc4C3=O)Cc3cc(C#N)ccc3C2O1 |  | 2.82 µM [rising, partial curve, poor fit] |
| CCCCn1nc(C(=O)NCc2ccccc2CN2CCCC2)c2ccccc2c1=O | 0.92 µM [falling, partial curve, poor fit] |  |
| CCCCN(CC)C(=S)Nc1ccc2nc(N3CCN(C)CC3)cc(C)c2c1 | 7.08 µM [falling, partial curve, poor fit] |  |
| CC(=O)NC1C(=O)N(Cc2ccccc2)c2ccc(Br)cc21 (stereo unspecified) | 35.5 µM [falling, partial curve, poor fit] |  |
| CC(C)c1nnc(NC(=O)CSc2ccccc2)s1 | 2.91 µM [rising, partial curve, poor fit] |  |
| COc1ccc(CC(=O)Nc2nnc(C)s2)cc1 | 1.64 µM [rising, single point] |  |
| N#CC(C#N)=CC1=C2OC(c3ccccc3)=CC(c3ccccc3)=C2CCC1 | 1.84 µM [rising, partial curve, poor fit] |  |

Among those listed so far, 8 have four or more nitrogen atoms:

| SMILES | AC50 [1] | AC50 [2] |
| --- | --- | --- |
| O=[N+]([O-])c1cccc(/C=N/Nc2nccnc2Cl)c1 | 12.6 µM [rising, partial curve, poor fit] |  |
| O=C(NCC(c1cccnc1)N1CCN(c2ccccc2F)CC1)OCc1ccccc1 (stereo unspecified) | 2.06 µM [rising, partial curve, poor fit] |  |
| COc1ccc(OC)c(NC(=O)CSc2nc3ccccc3c(=O)n2CCNC(C)=O)c1 | 3.26 µM [rising, full curve, poor fit] |  |
| CC(=O)Nc1ccc(NC(=O)CSc2nnc(-c3cc(C)[nH]n3)n2N)cc1 | 35.5 µM [rising, single point] |  |
| CN(C)c1nc(NCc2ccccc2)nc(N/N=C/c2ccccc2F)n1 | 2.51 µM [rising, single point] |  |
| Cc1cccnc1NC(=O)c1ccc2nc(N)sc2c1 | 0.116 µM [falling, full curve, poor fit] |  |
| CCCCn1nc(C(=O)NCc2ccccc2CN2CCCC2)c2ccccc2c1=O | 0.92 µM [falling, partial curve, poor fit] |  |
| CCCCN(CC)C(=S)Nc1ccc2nc(N3CCN(C)CC3)cc(C)c2c1 | 7.08 µM [falling, partial curve, poor fit] |  |

The list continues.

| SMILES | AC50 [1] | AC50 [2] |
| --- | --- | --- |
| COc1cc2c(cc1OC)C(=S)NC(C)(C)C2 | 22.4 µM [rising, partial curve, poor fit] | 32.6 µM [falling, partial curve, poor fit] |
| COc1ccc2sc(-c3ccc(N(C)C)cc3)c(-c3ccc4cc[nH]c4c3)c2c1 | 0.731 µM [rising, partial curve, poor fit] |  |
| CSc1ccccc1OCc1cc(C(=O)NCCCn2nc(C)cc2C)no1 | 6.31 µM [falling, partial curve, poor fit] |  |
| COc1ccc(NC(=S)N2CCC(NC(=O)c3cccc(C)c3)CC2)cc1 | 2.82 µM [rising, partial curve, poor fit] |  |
| CCCc1ncc(CN2CCCC(C(=O)Nc3ccc(-c4cccc(OC)c4)cc3)C2)cn1 (stereo unspecified) | 10 µM [falling, partial curve] |  |
| C/C(CCc1ccccc1)=N\NC(=O)COc1ccccc1C | 11.2 µM [rising, partial curve] |  |
| O=C(NNC(=O)C1COc2ccccc2O1)c1ccccc1O (stereo unspecified) | 3.66 µM [falling, full curve] |  |
| CSc1ccc(/C=N\Nc2nncn2N)cc1 | 35.5 µM [falling, single point] |  |
| Cc1ccccc1CN1C(=O)c2ccccc2Sc2ccc(C(=O)O)cc21 | 25.1 µM [falling, single point] |  |
| COC(=O)N1N=C(c2ccc(Br)cc2)CC1(O)C(F)(F)F (stereo unspecified) | 2.06 µM [rising, full curve] |  |
| O=S(=O)(NCCc1ccccc1)c1cccc2cccnc12 | 5.62 µM [falling, single point] |  |
| Cc1ccc(C(=O)OC2OC(=O)C(Cl)=C2N2CCOCC2)cc1 (stereo unspecified) | 0.461 µM [rising, partial curve, poor fit] |  |
| Cc1csc(NC(=O)CNS(=O)(=O)c2cccs2)n1 | 5.01 µM [falling, partial curve, poor fit] |  |
| CCC(C)/C=C/C1=CC2=C(Cl)C(=O)C3(C)OC(=O)C(C(=O)C(C)C(C)O)C3C2=CO1 (stereo unspecified) | 5.62 µM [rising, partial curve, poor fit] |  |
| O=C(Nc1ccc(-n2cccn2)cc1)C1CCCCN1Cc1cccc2cccnc12 (stereo unspecified) | 3.55 µM [rising, partial curve, poor fit] |  |
| COC(=O)C1CC23C=CCN4CCC5(c6ccccc6NC15C2C)C43 (stereo unspecified) | 8.91 µM [rising, partial curve, poor fit] | 7.08 µM [falling, full curve] |
| CCC(=O)Nc1ccccc1C(=O)OCc1ccc(C(=O)c2ccccc2)cc1 | 35.5 µM [falling, single point] |  |
| O=S1(=O)C[C@@H](N2CCOCC2)[C@H](N2CCOCC2)C1 | 0.708 µM [rising, full curve, poor fit] |  |
| CC1=NN(c2ccccc2)C(=O)C1C(=O)c1ccc(Cl)cc1 (stereo unspecified) | 35.5 µM [falling, single point] |  |
